Reference: publication PMC5583512
Results are given in words; binding and its absence hold for the method and conditions named. Some results given as binding are weak or reduced against the parent protein; the word gives no strength.

B1: ParA(K20R) (protein, UniProt B8GW31 1-267)
chain: MSANPLRVLAIANQKGGVGRTTTAINLGTALAACGERVLLIDADPQGNCSTGLGIGRTQRRTTLYDVLMGEAPVVDAAVKTELPGLDVIPADADLSGVEIELGQTARRSYRLRDALEAIRANGPYTYVLIDCPPSLNVLTVNAMTAADAVFVPLQCEFFALEGLTQLMRTIERVRGSLNPRLEIQGVVLTMYDRRNSLSEQVAKDVRAHFGDKVYDAVIPRNVRVSEAPSFGKPVLLYDLKCAGSQAYLKLAREVISRERDRQAKAA
B2: ParA (WT) (protein, UniProt B8GW31 1-267)
chain: MSANPLRVLAIANQKGGVGKTTTAINLGTALAACGERVLLIDADPQGNCSTGLGIGRTQRRTTLYDVLMGEAPVVDAAVKTELPGLDVIPADADLSGVEIELGQTARRSYRLRDALEAIRANGPYTYVLIDCPPSLNVLTVNAMTAADAVFVPLQCEFFALEGLTQLMRTIERVRGSLNPRLEIQGVVLTMYDRRNSLSEQVAKDVRAHFGDKVYDAVIPRNVRVSEAPSFGKPVLLYDLKCAGSQAYLKLAREVISRERDRQAKAA

Biological target: T1, ParB (Caulobacter crescentus) (UniProt B8GW30)
T1 sequence: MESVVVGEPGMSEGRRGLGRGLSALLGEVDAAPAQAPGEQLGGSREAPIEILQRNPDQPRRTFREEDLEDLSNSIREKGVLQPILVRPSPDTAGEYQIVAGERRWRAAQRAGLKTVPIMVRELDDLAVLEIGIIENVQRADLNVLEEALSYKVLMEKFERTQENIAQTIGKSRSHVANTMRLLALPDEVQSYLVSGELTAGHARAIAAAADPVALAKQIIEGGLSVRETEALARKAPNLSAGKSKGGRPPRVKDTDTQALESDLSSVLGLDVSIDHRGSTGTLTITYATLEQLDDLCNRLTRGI
Assay: two-hybrid; yeast two-hybrid; β-galactosidase activity assayed for each strain, presented relative to the ParB-ParA^WT value; four biological replicates

Binder	binding
B1	binds
B2	binds
